These are yes or no findings as the source states them, for the method shown. Some results given as binding are weak or reduced against the parent protein; the word gives no strength. Values belong to the binder of their own block, whether it stands above or below them.
Key:
[1] = molecular target: soluble Fas ligand molecule (human Fas ligand released into the supernatant of COS cells transfected with human Fas ligand-BCMGSNeo, purified on NOK1 antibody) (human) (UniProt P48023); test: ELISA, soluble Fas ligand coated at 50 ng/ml, detection with HRP anti-human Ig-Ckappa
[2] = molecular target: native Fas ligand (FLAG-tagged extracellular domain of human Fas ligand without amino acid substitution, secreted by COS cells) (human) (UniProt P48023); test: ELISA, native Fas ligand supernatant coated on plate, twofold dilutions of antibody from 50 ug/ml
[3] = molecular target: soluble Fas ligand molecule (human Fas ligand released into the supernatant of COS cells transfected with human Fas ligand-BCMGSNeo, purified on NOK1 antibody) (human) (UniProt P48023); test: ELISA, soluble Fas ligand coated on plate, purified antibody, anti-human Ig detection
[4] = molecular target: native Fas ligand (FLAG-tagged extracellular domain of human Fas ligand without amino acid substitution, secreted by COS cells) (human) (UniProt P48023); test: ELISA, native Fas ligand supernatant coated on plate, twofold dilutions of antibody from 3.57 ug/ml
[5] = molecular target: native Fas ligand (FLAG-tagged extracellular domain of human Fas ligand without amino acid substitution, secreted by COS cells) (human) (UniProt P48023); test: ELISA, native Fas ligand supernatant coated on plate, twofold dilutions of antibody from 1.86 ug/ml
[6] = molecular target: native Fas ligand (FLAG-tagged extracellular domain of human Fas ligand without amino acid substitution, secreted by COS cells) (human) (UniProt P48023); test: ELISA, native Fas ligand supernatant coated on plate, twofold dilutions of antibody from 3.35 ug/ml

By UniProt entry, the sequences of proteins in these tests, tags left out. Where a name states a change or a piece, a line headed by the entry shows the natural chain unless it says otherwise. Residues count along the entry.
UniProt P48023, residues 130-281: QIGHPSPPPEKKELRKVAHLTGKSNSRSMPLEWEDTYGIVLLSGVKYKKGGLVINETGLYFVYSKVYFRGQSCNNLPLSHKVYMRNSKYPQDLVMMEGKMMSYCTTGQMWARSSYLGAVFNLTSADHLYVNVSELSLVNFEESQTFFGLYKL

binding [1]: binds
B1: chimeric NOK2 antibody (CNOK2) (antibody, V domains shown)
VH: QVHLQQSGAELVRPGTSVKMSCKAAGYTFTNYWIGWVKQRPGHGLEWIGYLYPGGLYTNYNEKFKGKATLTADTSSSTAYMQLSSLTSEDSAIYYCARYRDYDYAMDYWGQGTSVTVSS
VL: DVVLTQTPLSLPVNIGDQASISCKSTKSLLNSDGFTYLGWCLQKPGQSPQLLIYLVSNRFSGVPDRFSGSGSGTDFTLKISRVEAEDLGVYYCFQSNYLPLTFGSGTKLEIKR

binding [2]: binds
B2: NOK2 antibody (mouse anti-Fas ligand monoclonal antibody of hybridoma NOK2, FERM BP-5045) (antibody, V domains shown)
VH: QVHLQQSGAELVRPGTSVKMSCKAAGYTFTNYWIGWVKQRPGHGLEWIGYLYPGGLYTNYNEKFKGKATLTADTSSSTAYMQLSSLTSEDSAIYYCARYRDYDYAMDYWGQGTSVTVSS
VL: DVVLTQTPLSLPVNIGDQASISCKSTKSLLNSDGFTYLGWCLQKPGQSPQLLIYLVSNRFSGVPDRFSGSGSGTDFTLKISRVEAEDLGVYYCFQSNYLPLTFGSGTKLEIKR
notes: Mouse IgG, purified on protein G; kappa light chain; Those are derived from the cloned PCR product and may hold leader or primer residues; also called mouse NOK2 immunoglobulin; NOK2 immunoglobulin

binding [3]: binds
binding [4]: binds
B3: RNOK201 (humanized NOK2 antibody, RNOK2VHver11 with RNOK2VLver1) (antibody, V domains shown)
VH: QVQLVQSGAEVKKPGASVKVSCKASGYTFTNYWIGWVKQAPGQGLEWIGYLYPGGLYTNYNEKFKGKATMTADTSTNTAYMELSSLRSEDTAVYYCARYRDYDYAMDYWGQGTLVTVSS
VL: DVVMTQTPSSLSASVGDRASISCKSTKSLLNSDGFTYLGWCQQKPGQSPQLLIYLVSNRFSGVPDRFSGSGSGTDFTLKISSLQPEDIATYYCFQSNYLPLTFGQGTKVEIKR

binding [3]: binds
binding [5]: binds
B4: RNOK202 (humanized NOK2 antibody, RNOK2VHver11 with RNOK2VLver21) (antibody, V domains shown)
VH: QVQLVQSGAEVKKPGASVKVSCKASGYTFTNYWIGWVKQAPGQGLEWIGYLYPGGLYTNYNEKFKGKATMTADTSTNTAYMELSSLRSEDTAVYYCARYRDYDYAMDYWGQGTLVTVSS
VL: DVVMTQTPLSLPVTPGEPASISCKSTKSLLNSDGFTYLGWCLQKPGQSPQLLIYLVSNRFSGVPDRFSGSGSGTDFTLKISRVEAEDVGVYYCFQSNYLPLTFGQGTKLEIKR

binding [3]: binds
binding [6]: binds
B5: RNOK203 (humanized NOK2 antibody, RNOK2VHver11 with RNOK2VLver22) (antibody, V domains shown)
VH: QVQLVQSGAEVKKPGASVKVSCKASGYTFTNYWIGWVKQAPGQGLEWIGYLYPGGLYTNYNEKFKGKATMTADTSTNTAYMELSSLRSEDTAVYYCARYRDYDYAMDYWGQGTLVTVSS
VL: DVVMTQTPLSLPVTLGQPASISCKSTKSLLNSDGFTYLGWCLQKPGQSPQLLIYLVSNRFSGVPDRFSGSGSGTDFTLKISRVEAEDVGVYYCFQSNYLPLTFGQGTKLEIKR
